Test results taken from patent US20170189504A1, “NOVEL PEPTIDES AND COMBINATION OF PEPTIDES FOR USE IN IMMUNOTHERAPY AGAINST VARIOUS CANCERS” (immatics biotechnologies GmbH, priority 2015, published 2017).
For some assays here: Expression values are those of the mRNA of the gene that encodes the peptide; a gene is named only where it was looked up.

Experiments:
HLA-A*02 = assay: Identification and relative LC-MS quantitation of HLA-A*02-presented tumor-associated peptides on tissue samples (presentation profiles, Tables 13A, 13B, 15, FIG. 1); set-up: species or system human; key to Presentation score NHL / Presentation score CLL / Presentation score BRCA / Presentation score AML / Presentation score GB / Presentation score NSCLC / Presentation score GBC_CCC / Presentation score UEC / Presentation score MEL / Presentation score OSCAR / Presentation score GC / Presentation score UBC / Presentation score OC / Presentation score RCC / Presentation score CRC / Presentation score PCA / Presentation score HCC / Presentation score PC / Presentation score SCLC: specifically presented on tumors (++++); very highly over-presented on tumors compared to a panel of normal tissues (+++); highly over-presented on tumors compared to a panel of normal tissues (++); over-presented on tumors compared to a panel of normal tissues (+)
source genes (mRNA) [1] = assay: Expression profiling of source genes by in-house RNASeq of tumor and normal tissues (Table 18, FIG. 2); set-up: species or system human; key: very highly over-expressed in tumors compared to a panel of normal tissues (+++); highly over-expressed in tumors compared to a panel of normal tissues (++); over-expressed in tumors compared to a panel of normal tissues (+); settings: source gene of peptide
source genes (mRNA) [2] = assay: Gene and exon expression of source genes, TCGA tumor samples compared with normal tissue samples (Lonsdale, 2013) (Table 17); set-up: species or system human

## 137: peptide found in RIF1 (gene looked up) (EIASITEQL; listed as Homo sapiens) [compound 137]
HLA-A*02; HLA-A*02 peptides, glioblastoma (N = 41) vs panel of normal tissues (N = 262)
  Presentation score GB: +++
HLA-A*02; HLA-A*02 peptides, non-small cell lung cancer (N = 90) vs panel of normal tissues (N = 262)
  Presentation score NSCLC: +++
HLA-A*02; Table 13A, HLA-A*02-binding tumor-associated peptides, cancer entities on which the peptide was found presented
  Peptide Presentation on cancer entities: GB, NSCLC
Source genes (mRNA) [1]; colorectal cancer (N = 20) vs panel of normal tissues
  Expression score CRC: +
Source genes (mRNA) [1]; esophageal cancer incl. gastric-esophageal junction (N = 11) vs panel of normal tissues
  Expression score OSCAR: +
Source genes (mRNA) [1]; gallbladder adenocarcinoma and cholangiocarcinoma (N = 3) vs panel of normal tissues
  Expression score GBC_CCC: +
Source genes (mRNA) [1]; glioblastoma (N = 24) vs panel of normal tissues
  Expression score GB: +
Source genes (mRNA) [1]; non-Hodgkin lymphoma (N = 10) vs panel of normal tissues
  Expression score NHL: +
Source genes (mRNA) [1]; non-small cell lung cancer (N = 11) vs panel of normal tissues
  Expression score NSCLC: +
Source genes (mRNA) [1]; ovarian cancer (N = 12) vs panel of normal tissues
  Expression score OC: +
Source genes (mRNA) [1]; small cell lung cancer (N = 10) vs panel of normal tissues
  Expression score SCLC: +
Source genes (mRNA) [1]; uterine cancer (N = 10) vs panel of normal tissues
  Expression score UEC: +
Source genes (mRNA) [2]; BRCA = Breast cancer (N = 1104), tumors more than 2-fold above highest 75% percentile of normal tissues
  Over-expression category of source gene (target coverage), BRCA: B (>= 20% of tumors above the cutoff, but <50%)
Source genes (mRNA) [2]; DLBC = Lymphoid neoplasm diffuse large B-cell lymphoma (N = 48), same cutoff
  Over-expression category of source gene (target coverage), DLBC: C (>=5% of tumors above the cutoff, but <20%)
Source genes (mRNA) [2]; ESCA = Esophageal cancer (N = 185), same cutoff
  Over-expression category of source gene (target coverage), ESCA: A (>=50% of tumors above the cutoff)
Source genes (mRNA) [2]; KIRC = Clear cell kidney carcinoma (N = 534), same cutoff
  Over-expression category of source gene (target coverage), KIRC: B (>= 20% of tumors above the cutoff, but <50%)
Source genes (mRNA) [2]; KIRP = Papillary kidney carcinoma (N = 291), same cutoff
  Over-expression category of source gene (target coverage), KIRP: C (>=5% of tumors above the cutoff, but <20%)
Source genes (mRNA) [2]; LAML = Acute Myeloid Leukemia (N = 173), same cutoff
  Over-expression category of source gene (target coverage), LAML: A (>=50% of tumors above the cutoff)
Source genes (mRNA) [2]; LGG = Lower grade glioma (N = 534), same cutoff
  Over-expression category of source gene (target coverage), LGG: C (>=5% of tumors above the cutoff, but <20%)
Source genes (mRNA) [2]; LUAD = Lung adenocarcinoma (N = 517), same cutoff
  Over-expression category of source gene (target coverage), LUAD: C (>=5% of tumors above the cutoff, but <20%)
Source genes (mRNA) [2]; LUSC = Lung squamous cell carcinoma (N = 503), same cutoff
  Over-expression category of source gene (target coverage), LUSC: C (>=5% of tumors above the cutoff, but <20%)
Source genes (mRNA) [2]; PAAD = Pancreatic ductal adenocarcinoma (N = 179), same cutoff
  Over-expression category of source gene (target coverage), PAAD: C (>=5% of tumors above the cutoff, but <20%)
Source genes (mRNA) [2]; PRAD = Prostate adenocarcinoma (N = 498), same cutoff
  Over-expression category of source gene (target coverage), PRAD: C (>=5% of tumors above the cutoff, but <20%)
Source genes (mRNA) [2]; READ = Colon and rectal adenocarcinoma (N = 167), same cutoff
  Over-expression category of source gene (target coverage), READ: C (>=5% of tumors above the cutoff, but <20%)
Source genes (mRNA) [2]; SKCM = Skin cutaneous melanoma (N = 473), same cutoff
  Over-expression category of source gene (target coverage), SKCM: C (>=5% of tumors above the cutoff, but <20%)
Source genes (mRNA) [2]; STAD = Stomach adenocarcinoma (N = 415), same cutoff
  Over-expression category of source gene (target coverage), STAD: A (>=50% of tumors above the cutoff)
